These results are taken from article PMC9988962 (Scientific Reports, 2023).

The nature of this data set: general procedure: Fmoc solid-phase peptide synthesis; H-PAL ChemMatrix; HATU. To be noted: whole synthesis, based on HPLC analysis of the crude peptide, scale 0.1 mmol.

Strings that start with PEPTIDE1 are HELM notation: dots part the residues, brackets hold end groups and non-standard residues.

In turn, “PEPTIDE1{V.N.W.K.K.I.L.G.K.I.I.K.V.V.K.[am]}$$$$V2.0” gave a crude yield of 58%.

As to “PEPTIDE1{V.[Asn(GlcNAc)].W.K.K.I.L.G.K.I.I.K.V.V.K.[am]}$$$$V2.0”, the crude yield came to 63%.
